From patent publication US20060009379A1
These are yes or no findings as the source states them, for the method shown. Binding seen in cells or lysates may run through a third protein. Some binding calls cover weakened binding; strength is not graded here. For some of these results: Where a sequence is shown, tags or fusion partners need not be part of it. Values belong to the binder of their own block, whether it stands above or below them.

What was measured:
[1] = biological target: p53 (full-length), from 293 cell lysate (UniProt P04637); experiment: GST-raNS pull-down from cell lysate, Western blot
[2] = biological target: p53 (full-length), from 293 cell lysate (UniProt P04637); experiment: GST pull-down, Western blot (FIG. 6E left upper panel)
GST-p53 fusion protein [3] = biological target: GST-p53 fusion protein (UniProt P04637); experiment: GST-p53 pull-down, Western blot (FIG. 6E left lower panel)
GST-p53 fusion protein [4] = biological target: GST-p53 fusion protein (UniProt P04637); experiment: GST-p53 pull-down from cell lysate, Western blot

- binding [1]: binds
- binding [2]: binds
B1: GST-raNS (GST fusion of rat nucleostemin) (protein, not shown: a dimerising Fc or GST)
chain: MKRPKLKKASKRMTCHKRYKIQKKVREHHRKLRKEAKKRGHKKPKKDPGVPNSAPFKEALLREAELRKQQLEELKQQQKLDRQKEQERKRKLEISPDDEQSNVETQEESDEPKIKKAKSGKQNPKKLHCQELKKVIEASDIVLEVLDARDPLGCRCPQVEEAVIQSGCKKLVLVLNKSDLVPKENLENWLTYLNKELPTVVFKASTNLKNRKKTFKIKKKVVPFQSKLCCGKEALWKLLGGFQQSCGKGVQVGVVGFPNVGKSSIINSLKQERICSVGVSMGLTRSMQIVPLDKQITIIDSPCFIISPCNSPAALALRSPASIEVLRPLEAASAILSQADSQQVVLKYTVPGYKDSLDFFTKLAQRRGLHQKGGSPNVESAAKLLWSEWTGASLGYYCHPPASWNHSPHFNENITAIMKRGFNLEELEKNNAHSIQVLKGPHLTNKILFRSSGLTNGILEEKDIPEESPKQTEDQQDGDDQEHVTGEKNAEISDVTPVEETREMSPGQSTASKPSDRSFILDKMSEEDDAYDFTTDYI

- binding (GST-p53 fusion protein [3]): binds
- binding (GST-p53 fusion protein [4]): binds
B2: rat nucleostemin (raNS), wild type (protein)
chain: B1 chain
